This note sets out measurements from article PMC12808100, “The non-catalytic DNA polymerase ε subunit is an NPF motif recognition protein” (Nature Communications, 2025).

In one series the test system is POLE2 WT. Put plainly: Proximity labeling MS, MAC3-tagged POLE2 WT in Flp-In T-REx 293 cells. The note with it: bait POLE2_WT, spectral count. It counts as cell-based, human.
In a further series the test system is POLE2 Y311F. Put plainly: Proximity labeling MS, POLE2 Y311F. The note with it: bait POLE2_Y311F, spectral count.

B1: ABT1 (protein, UniProt Q9ULW3 1-272, looked up)
Activator of basal …: MEAEESEKAATEQEPLEGTEQTLDAEEEQEESEEAACGSKKRVVPGIVYLGHIPPRFRPLHVRNLLSAYGEVGRVFFQAEDRFVRRKKKAAAAAGGKKRSYTKDYTEGWVEFRDKRIAKRVAASLHNTPMGARRRSPFRYDLWNLKYLHRFTWSHLSEHLAFERQVRRQRLRAEVAQAKRETDFYLQSVERGQRFLAADGDPARPDGSWTFAQRPTEQELRARKAARPGGRERARLATAQDKARSNKGLLARIFGAPPPSESMEGPSLVRDS
With B1, the Spec in the series with POLE2 WT (replicate 1) was 9; in the series on POLE2 WT (replicate 2), 11; in the series on POLE2 WT (replicate 3), 13; in the series with POLE2 WT (replicate 4) it was 4; in the series on POLE2 WT (replicate 5) it was 2; in the series on POLE2 Y311F (replicate 1), 11. For the same molecule, in the series with POLE2 Y311F (replicate 2), the Spec came out at 8.
